The record followed here is article PMC6969153.

Protein sequences, listed by entry. Tags and fused reporters are not part of them.
UniProt Q14258: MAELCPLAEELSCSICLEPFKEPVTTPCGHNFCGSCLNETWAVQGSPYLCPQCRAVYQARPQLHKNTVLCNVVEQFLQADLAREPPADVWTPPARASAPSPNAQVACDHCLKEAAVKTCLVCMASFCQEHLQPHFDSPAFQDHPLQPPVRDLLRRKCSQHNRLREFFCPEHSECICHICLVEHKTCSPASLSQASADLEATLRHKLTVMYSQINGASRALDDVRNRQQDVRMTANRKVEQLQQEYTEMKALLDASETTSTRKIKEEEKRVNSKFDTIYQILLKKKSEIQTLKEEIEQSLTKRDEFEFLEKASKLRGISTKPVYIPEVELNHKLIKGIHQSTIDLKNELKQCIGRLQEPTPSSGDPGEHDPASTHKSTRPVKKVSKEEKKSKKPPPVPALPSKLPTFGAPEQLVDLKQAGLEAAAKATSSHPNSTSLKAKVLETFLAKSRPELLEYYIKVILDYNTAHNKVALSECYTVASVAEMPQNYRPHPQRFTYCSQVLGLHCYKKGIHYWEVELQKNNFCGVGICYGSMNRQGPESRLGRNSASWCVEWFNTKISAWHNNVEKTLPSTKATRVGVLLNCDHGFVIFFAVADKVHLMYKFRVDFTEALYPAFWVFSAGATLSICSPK
UniProt Q14145: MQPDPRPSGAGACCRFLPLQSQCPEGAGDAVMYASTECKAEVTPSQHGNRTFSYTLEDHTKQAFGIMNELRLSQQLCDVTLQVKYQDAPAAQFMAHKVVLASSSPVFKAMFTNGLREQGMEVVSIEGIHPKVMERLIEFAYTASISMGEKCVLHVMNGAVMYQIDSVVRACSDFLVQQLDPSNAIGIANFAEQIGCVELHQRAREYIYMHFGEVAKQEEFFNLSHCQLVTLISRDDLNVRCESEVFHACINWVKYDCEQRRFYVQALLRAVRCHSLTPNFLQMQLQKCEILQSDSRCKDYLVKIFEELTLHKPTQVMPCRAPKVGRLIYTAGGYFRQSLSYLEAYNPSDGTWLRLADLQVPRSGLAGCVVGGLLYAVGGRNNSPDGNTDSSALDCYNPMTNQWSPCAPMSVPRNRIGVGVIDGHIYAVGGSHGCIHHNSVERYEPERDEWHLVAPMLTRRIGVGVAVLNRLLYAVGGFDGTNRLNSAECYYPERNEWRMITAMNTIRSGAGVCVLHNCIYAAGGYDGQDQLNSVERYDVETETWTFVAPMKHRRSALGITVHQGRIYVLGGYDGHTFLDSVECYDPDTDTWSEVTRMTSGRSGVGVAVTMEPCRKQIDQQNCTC

No constants are given. Whether binding was seen depends on the method and setting. In cells and extracts the contact can be indirect. A yes stands for co-enrichment or nearness to the bait. Other partners may have been found.

The target of this assay is TRIM25 (bait of the co-immunoprecipitation analysed by mass spectrometry) (human) (UniProt Q14258). The assay can be described thus: affinity purification with mass spectrometry; co-immunoprecipitation of TRIM25 and liquid chromatography-tandem mass spectrometry; cells not given.

On to “Keap1 (identified by mass spectrometry in the TRIM25 co-immunoprecipitate) (from UniProt Q14145 1-624)”, for which the binding result is reported as “binds”.
